Data published in the supplement of paper PMC10849652.
The other results are listed elsewhere or left out.

By UniProt entry, the sequences of proteins in these tests, tags left out. Where a name states a change or a piece, a line headed by the entry shows the natural chain unless it says otherwise.
UniProt Q8N183: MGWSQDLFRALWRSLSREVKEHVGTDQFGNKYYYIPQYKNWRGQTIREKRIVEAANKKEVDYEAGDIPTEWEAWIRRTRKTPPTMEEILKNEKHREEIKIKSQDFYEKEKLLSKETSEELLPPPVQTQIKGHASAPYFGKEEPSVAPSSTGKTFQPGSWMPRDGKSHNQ
UniProt Q15788: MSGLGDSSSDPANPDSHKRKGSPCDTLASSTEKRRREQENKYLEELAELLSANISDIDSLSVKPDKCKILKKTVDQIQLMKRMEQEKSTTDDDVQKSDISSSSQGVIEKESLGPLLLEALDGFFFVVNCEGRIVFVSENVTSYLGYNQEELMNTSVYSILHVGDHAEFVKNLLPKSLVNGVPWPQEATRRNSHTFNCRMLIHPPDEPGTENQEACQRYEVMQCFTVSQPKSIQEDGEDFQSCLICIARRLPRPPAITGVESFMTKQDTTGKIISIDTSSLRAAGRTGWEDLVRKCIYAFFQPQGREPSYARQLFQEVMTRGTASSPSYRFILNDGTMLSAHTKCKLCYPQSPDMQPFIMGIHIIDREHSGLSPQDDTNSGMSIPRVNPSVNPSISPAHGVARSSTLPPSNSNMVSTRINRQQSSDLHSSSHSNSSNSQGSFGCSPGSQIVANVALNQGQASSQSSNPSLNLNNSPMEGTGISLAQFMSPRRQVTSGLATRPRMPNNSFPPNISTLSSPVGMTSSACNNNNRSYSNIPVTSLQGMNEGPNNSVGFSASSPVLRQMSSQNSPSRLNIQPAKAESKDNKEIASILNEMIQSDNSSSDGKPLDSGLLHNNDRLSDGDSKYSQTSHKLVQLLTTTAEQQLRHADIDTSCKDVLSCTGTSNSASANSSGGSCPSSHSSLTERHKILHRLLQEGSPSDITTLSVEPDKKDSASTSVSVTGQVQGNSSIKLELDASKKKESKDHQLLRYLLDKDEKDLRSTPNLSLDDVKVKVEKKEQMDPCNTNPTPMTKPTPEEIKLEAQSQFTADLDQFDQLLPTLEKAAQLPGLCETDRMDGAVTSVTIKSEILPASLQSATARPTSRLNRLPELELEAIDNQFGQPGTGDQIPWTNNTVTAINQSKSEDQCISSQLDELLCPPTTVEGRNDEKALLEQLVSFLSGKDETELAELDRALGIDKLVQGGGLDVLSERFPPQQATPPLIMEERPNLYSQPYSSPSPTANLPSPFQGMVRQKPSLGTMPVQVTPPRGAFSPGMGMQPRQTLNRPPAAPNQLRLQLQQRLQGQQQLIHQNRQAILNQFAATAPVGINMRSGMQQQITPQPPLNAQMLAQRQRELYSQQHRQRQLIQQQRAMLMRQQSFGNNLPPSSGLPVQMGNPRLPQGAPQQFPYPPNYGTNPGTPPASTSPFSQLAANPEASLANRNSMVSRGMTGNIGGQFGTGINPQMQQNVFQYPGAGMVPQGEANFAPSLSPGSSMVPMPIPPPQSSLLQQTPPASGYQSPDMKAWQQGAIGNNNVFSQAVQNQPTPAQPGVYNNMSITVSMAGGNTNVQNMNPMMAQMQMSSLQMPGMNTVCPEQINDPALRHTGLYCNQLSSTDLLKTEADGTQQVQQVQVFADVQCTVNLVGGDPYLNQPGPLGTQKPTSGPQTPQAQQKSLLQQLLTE
UniProt P56181: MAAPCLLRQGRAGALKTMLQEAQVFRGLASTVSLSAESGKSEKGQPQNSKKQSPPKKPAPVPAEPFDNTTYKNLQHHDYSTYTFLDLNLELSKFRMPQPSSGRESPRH
UniProt Q92542, whole entry, looked up: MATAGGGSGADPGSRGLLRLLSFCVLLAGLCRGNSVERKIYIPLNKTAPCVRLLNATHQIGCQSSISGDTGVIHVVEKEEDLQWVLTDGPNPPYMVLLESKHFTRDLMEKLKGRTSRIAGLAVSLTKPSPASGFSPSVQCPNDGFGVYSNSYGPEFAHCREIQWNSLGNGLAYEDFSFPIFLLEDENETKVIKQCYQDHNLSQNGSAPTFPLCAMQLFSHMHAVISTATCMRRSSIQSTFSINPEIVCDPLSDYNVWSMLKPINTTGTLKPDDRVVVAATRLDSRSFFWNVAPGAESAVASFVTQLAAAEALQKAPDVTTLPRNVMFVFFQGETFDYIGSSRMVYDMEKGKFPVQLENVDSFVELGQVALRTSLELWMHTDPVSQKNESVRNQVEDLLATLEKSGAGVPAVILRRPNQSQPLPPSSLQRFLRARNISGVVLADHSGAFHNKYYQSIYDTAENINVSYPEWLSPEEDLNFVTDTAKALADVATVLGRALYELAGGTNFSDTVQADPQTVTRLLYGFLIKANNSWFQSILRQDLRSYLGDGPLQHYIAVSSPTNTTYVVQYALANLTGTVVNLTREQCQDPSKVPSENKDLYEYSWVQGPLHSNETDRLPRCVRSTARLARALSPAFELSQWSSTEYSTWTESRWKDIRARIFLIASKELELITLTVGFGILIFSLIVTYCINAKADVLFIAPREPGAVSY
UniProt P43490: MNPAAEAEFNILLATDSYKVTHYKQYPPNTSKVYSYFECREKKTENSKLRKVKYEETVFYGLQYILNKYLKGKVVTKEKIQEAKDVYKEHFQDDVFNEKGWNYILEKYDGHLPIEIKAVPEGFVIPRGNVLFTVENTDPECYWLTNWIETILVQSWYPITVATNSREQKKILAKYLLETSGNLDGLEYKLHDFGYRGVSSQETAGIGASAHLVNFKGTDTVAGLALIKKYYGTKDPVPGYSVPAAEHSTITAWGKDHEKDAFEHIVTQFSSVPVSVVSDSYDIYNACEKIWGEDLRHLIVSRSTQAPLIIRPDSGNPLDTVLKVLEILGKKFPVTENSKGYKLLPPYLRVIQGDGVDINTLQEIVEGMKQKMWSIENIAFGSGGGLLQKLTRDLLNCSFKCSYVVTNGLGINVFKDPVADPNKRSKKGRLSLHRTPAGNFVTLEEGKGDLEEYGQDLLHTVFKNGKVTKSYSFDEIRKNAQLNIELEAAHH
UniProt Q147X3: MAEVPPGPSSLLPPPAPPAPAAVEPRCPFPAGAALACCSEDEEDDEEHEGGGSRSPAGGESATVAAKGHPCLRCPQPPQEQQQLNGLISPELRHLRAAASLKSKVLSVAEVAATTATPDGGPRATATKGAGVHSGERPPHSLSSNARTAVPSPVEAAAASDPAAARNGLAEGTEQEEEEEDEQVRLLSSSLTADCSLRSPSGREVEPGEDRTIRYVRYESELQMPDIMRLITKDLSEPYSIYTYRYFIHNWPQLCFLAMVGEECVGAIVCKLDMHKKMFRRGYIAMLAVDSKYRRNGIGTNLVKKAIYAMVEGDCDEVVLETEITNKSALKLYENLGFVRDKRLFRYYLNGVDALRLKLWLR
UniProt Q9GZZ1: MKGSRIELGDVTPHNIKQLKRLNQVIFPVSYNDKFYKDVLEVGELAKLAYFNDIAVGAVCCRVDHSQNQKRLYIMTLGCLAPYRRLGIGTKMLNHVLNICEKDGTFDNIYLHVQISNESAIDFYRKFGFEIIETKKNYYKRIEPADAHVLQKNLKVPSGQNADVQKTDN
UniProt P52849: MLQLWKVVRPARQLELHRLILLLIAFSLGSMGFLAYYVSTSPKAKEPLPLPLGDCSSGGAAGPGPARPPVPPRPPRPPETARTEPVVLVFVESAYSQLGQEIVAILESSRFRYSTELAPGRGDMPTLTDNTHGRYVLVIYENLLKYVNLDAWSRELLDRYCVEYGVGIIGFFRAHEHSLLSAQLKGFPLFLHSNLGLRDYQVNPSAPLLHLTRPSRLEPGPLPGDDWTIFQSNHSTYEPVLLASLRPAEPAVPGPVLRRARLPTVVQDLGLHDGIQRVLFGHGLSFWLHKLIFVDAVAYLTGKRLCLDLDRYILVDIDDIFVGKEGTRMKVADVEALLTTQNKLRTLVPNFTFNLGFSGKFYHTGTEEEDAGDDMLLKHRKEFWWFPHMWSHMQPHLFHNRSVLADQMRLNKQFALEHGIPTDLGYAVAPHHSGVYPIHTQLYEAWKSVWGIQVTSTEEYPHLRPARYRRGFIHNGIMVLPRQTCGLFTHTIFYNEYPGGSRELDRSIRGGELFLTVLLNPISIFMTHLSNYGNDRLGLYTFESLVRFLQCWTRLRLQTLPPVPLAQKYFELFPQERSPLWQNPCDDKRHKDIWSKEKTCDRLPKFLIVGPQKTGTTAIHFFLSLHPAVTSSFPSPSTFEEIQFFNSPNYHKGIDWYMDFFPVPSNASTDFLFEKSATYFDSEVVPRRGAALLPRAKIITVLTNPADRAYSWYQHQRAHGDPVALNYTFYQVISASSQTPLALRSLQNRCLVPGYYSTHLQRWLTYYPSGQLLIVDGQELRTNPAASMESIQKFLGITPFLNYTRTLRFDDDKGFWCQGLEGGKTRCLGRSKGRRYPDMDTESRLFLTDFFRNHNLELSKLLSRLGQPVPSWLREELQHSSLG
UniProt Q14686, whole entry, looked up: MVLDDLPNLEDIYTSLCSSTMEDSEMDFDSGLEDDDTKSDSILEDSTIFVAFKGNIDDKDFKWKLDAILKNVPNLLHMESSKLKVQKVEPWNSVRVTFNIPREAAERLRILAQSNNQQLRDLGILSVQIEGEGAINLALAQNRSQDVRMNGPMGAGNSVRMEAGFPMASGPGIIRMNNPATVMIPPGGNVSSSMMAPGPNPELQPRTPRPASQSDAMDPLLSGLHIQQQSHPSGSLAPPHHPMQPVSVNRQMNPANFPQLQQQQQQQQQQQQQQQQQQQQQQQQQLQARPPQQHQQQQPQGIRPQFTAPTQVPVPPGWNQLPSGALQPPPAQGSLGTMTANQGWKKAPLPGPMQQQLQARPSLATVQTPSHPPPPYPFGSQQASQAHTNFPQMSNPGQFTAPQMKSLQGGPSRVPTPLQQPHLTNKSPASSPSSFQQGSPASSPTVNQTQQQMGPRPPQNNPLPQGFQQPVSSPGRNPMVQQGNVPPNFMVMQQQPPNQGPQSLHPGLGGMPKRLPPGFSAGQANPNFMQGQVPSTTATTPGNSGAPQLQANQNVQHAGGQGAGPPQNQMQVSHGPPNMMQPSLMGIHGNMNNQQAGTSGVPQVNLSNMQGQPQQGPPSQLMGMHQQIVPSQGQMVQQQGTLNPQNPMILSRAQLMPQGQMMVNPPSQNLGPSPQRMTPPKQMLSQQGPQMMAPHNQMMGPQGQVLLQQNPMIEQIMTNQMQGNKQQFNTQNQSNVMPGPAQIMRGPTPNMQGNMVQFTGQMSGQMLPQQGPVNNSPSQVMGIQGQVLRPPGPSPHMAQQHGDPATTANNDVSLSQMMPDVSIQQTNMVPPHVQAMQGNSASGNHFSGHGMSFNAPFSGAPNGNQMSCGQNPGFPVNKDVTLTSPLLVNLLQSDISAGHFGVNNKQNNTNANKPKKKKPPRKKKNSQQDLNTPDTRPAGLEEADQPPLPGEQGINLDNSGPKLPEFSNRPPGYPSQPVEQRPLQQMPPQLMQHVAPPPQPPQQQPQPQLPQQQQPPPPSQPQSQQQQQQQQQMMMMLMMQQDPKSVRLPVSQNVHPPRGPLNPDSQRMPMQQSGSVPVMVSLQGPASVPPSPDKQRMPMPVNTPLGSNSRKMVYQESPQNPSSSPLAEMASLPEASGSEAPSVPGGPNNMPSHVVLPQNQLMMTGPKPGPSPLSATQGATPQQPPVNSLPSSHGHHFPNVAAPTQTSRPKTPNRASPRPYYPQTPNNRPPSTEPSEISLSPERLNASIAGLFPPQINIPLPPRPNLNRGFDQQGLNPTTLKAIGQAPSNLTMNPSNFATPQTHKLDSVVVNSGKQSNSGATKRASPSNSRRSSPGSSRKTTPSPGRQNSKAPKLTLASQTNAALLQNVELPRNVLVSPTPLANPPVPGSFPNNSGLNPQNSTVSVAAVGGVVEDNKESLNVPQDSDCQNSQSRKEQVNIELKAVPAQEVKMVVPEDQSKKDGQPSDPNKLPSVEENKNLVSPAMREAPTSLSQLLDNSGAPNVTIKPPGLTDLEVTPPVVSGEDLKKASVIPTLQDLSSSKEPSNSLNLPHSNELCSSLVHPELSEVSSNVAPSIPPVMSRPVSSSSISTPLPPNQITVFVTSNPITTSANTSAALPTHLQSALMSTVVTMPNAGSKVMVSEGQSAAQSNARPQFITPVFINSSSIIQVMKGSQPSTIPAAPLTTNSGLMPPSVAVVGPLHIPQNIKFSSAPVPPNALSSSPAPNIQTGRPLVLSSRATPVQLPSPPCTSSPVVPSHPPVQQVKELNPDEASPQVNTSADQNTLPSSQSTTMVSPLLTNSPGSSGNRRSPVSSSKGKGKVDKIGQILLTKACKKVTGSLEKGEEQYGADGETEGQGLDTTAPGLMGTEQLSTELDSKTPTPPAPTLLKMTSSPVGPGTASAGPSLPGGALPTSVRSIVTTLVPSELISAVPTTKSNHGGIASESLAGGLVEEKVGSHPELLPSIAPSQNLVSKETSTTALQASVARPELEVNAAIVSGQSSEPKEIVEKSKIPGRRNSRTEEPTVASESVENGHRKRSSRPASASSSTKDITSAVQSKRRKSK
NBDY, A0A0U1RRE5, UniProt A0A0U1RRE5, whole entry, looked up: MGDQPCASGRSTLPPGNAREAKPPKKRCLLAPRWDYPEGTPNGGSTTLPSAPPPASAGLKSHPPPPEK

These targets were tested with C1=CC=C(C=C1)[C@H](COC2=CC3=C(C=C2)NC(=O)N3)NC(=O)C4=CC=CN(C4=O)CC5=CC(=C(C=C5)F)F (assay: log2 fold change, soluble protein after heating vs DMSO (PISA); higher = thermal stabilisation; K562 cells, 10 uM, 30 min; active = over 0.2 and 3.5 SD of the protein, either way, in both replicates (recomputed)).
Outline: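 Quantification of soluble protein used TMTpro 16plex LC-MS/MS, with channel sums equalised. Samples were the supernatant after 21,000xg for 90 min of pooled aliquots from K562 cells (2×10^6 cells/mL) treated with 10 μM compound for 30 min, heated for 3 min over 48°C-58°C, and extracted in PBS with 0.5% NP-40 at 4°C. Values, from duplicates, describe thermal stability against control samples on a log2 fold-change scale.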

| Target | log2 fold change |
| --- | --- |
| NDUFAF2 (UniProt Q8N183) | inactive: 0.032 |
| NAGPA (UniProt Q9UK23) | inactive: 0.179 |
| NAP1L1 (UniProt B7Z9C2) | inactive: 0.003 |
| NCOA1 (UniProt Q15788) | inactive: -0.155 |
| NDUFV3 isoform 2 (UniProt P56181) | inactive: 0.031 |
| NCSTN (UniProt Q92542) | inactive: 0.008 |
| NAMPT (UniProt P43490) | inactive: 0.021 |
| NAA30 (UniProt Q147X3) | inactive: -0.041 |
| NDUFV1 (UniProt E9PJL9) | inactive: -0.029 |
| NCK1 (UniProt P16333) | inactive: -0.077 |
| NAMPT (UniProt C9JF35) | inactive: -0.078 |
| NA, A0A2R8Y3M9 | inactive: -0.093 |
| NEB isoform 3 (UniProt P20929) | inactive: 0.024 |
| NAA50 (UniProt Q9GZZ1) | inactive: 0.018 |
| NDST2 (UniProt P52849) | inactive: 0.072 |
| NDUFA7 (UniProt M0R0N0) | inactive: -0.091 |
| NCOA6 (UniProt Q14686) | inactive: -0.051 |
| NDUFV2 (UniProt P19404) | inactive: 0.019 |
| NBDY, A0A0U1RRE5 | inactive: -0.046 |
| NECTIN2 isoform 2 (UniProt Q92692) | inactive: 0.179 |
| NDRG2 (UniProt Q9UN36) | inactive: -0.01 |

An excerpt of these results, with each value named:
NCOA1 (UniProt Q15788)
  log2 fold change: inactive: -0.155
NCSTN (UniProt Q92542)
  log2 fold change: inactive: 0.008
